PubChem BioAssay AID1259405 – NCATS, 2018
This is one part, drawn at random, of about 50,000 deposited reagents. About 4,000 of all reagents (8%) were called active. 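Mouse siRNA library applied to hamster cells; one well for each siRNA.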 The numbers tell different reagents against one gene apart.

Test: 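Knock-downs that lift recombinant protein yield in hamster ovary cells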 (primary screen)
Cells: Chinese hamster CHO-K1 ovary cells with stable secreted eGFP expression
Reagents: single siRNA against mouse genes, 0.8 pmol siRNA per well (2 µl of 400 nM stock)
Duration: 3 days
Read-out: 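Percent of the per-plate non-targeting control median for intracellular GFP per well by laser scanning cytometry and for cell viability by ATP luminescence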
Direction: GFP, % of control: higher = more GFP per well, higher productivity; viability (ATP), % of control: higher = more viable cells (more ATP)
Active means: 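a knock-down is called active if GFP reaches 120% or more of non-targeting control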

Or52r1b #1 → GFP, % of control = 66.6; viability (ATP), % of control = 67.1; outcome = inactive
Or52r1b #2 → GFP, % of control = 94.3; viability (ATP), % of control = 40.3; outcome = inactive
Or52r1b #3 → GFP, % of control = 136; viability (ATP), % of control = 85.3; outcome = active
Iqgap1 #1 → GFP, % of control = 83.1; viability (ATP), % of control = 71; outcome = inactive
Iqgap1 #2 → GFP, % of control = 65.8; viability (ATP), % of control = 58.9; outcome = inactive
Iqgap1 #3 → GFP, % of control = 124; viability (ATP), % of control = 85; outcome = active
Kctd3 #1 → GFP, % of control = 82.2; viability (ATP), % of control = 73.6; outcome = inactive
Kctd3 #2 → GFP, % of control = 57.3; viability (ATP), % of control = 72.4; outcome = inactive
Kctd3 #3 → GFP, % of control = 76.6; viability (ATP), % of control = 65.5; outcome = inactive
Nr2f6 #1 → GFP, % of control = 76.5; viability (ATP), % of control = 86.2; outcome = inactive
Nr2f6 #2 → GFP, % of control = 70.5; viability (ATP), % of control = 67.3; outcome = inactive
Zmat4 #1 → GFP, % of control = 63.8; viability (ATP), % of control = 82.3; outcome = inactive
Zmat4 #2 → GFP, % of control = 68.4; viability (ATP), % of control = 92.9; outcome = inactive
Zmat4 #3 → GFP, % of control = 53.3; viability (ATP), % of control = 58.4; outcome = inactive
Elf3 #1 → GFP, % of control = 110; viability (ATP), % of control = 54.1; outcome = inactive
Elf3 #2 → GFP, % of control = 108; viability (ATP), % of control = 103; outcome = inactive
Miso1 #1 → GFP, % of control = 52.3; viability (ATP), % of control = 78.8; outcome = inactive
Miso1 #2 → GFP, % of control = 55.7; viability (ATP), % of control = 66.9; outcome = inactive
Miso1 #3 → GFP, % of control = 91.9; viability (ATP), % of control = 95.9; outcome = inactive
Or10v5 #1 → GFP, % of control = 140; viability (ATP), % of control = 111; outcome = active
Or10v5 #2 → GFP, % of control = 66.5; viability (ATP), % of control = 73.6; outcome = inactive
Or10v5 #3 → GFP, % of control = 30.6; viability (ATP), % of control = 51.8; outcome = inactive

Laid out differently: 5 of the entries above.
{"gene":"Kctd3","reagent":3,"GFP, % of control":76.6,"viability (ATP), % of control":65.5,"outcome":"inactive"}
{"gene":"Nr2f6","reagent":1,"GFP, % of control":76.5,"viability (ATP), % of control":86.2,"outcome":"inactive"}
{"gene":"Nr2f6","reagent":2,"GFP, % of control":70.5,"viability (ATP), % of control":67.3,"outcome":"inactive"}
{"gene":"Zmat4","reagent":1,"GFP, % of control":63.8,"viability (ATP), % of control":82.3,"outcome":"inactive"}
{"gene":"Zmat4","reagent":2,"GFP, % of control":68.4,"viability (ATP), % of control":92.9,"outcome":"inactive"}

Continued:
Or2ag20 #1 → GFP, % of control = 28.8; viability (ATP), % of control = 23.1; outcome = inactive
Or2ag20 #2 → GFP, % of control = 75.8; viability (ATP), % of control = 75.6; outcome = inactive
Or2ag20 #3 → GFP, % of control = 89.6; viability (ATP), % of control = 59; outcome = inactive
Coxfa4l3 #1 → GFP, % of control = 70.4; viability (ATP), % of control = 66.2; outcome = inactive
Coxfa4l3 #2 → GFP, % of control = 73.8; viability (ATP), % of control = 53.5; outcome = inactive
Coxfa4l3 #3 → GFP, % of control = 77.4; viability (ATP), % of control = 74.3; outcome = inactive
Gcc1 #1 → GFP, % of control = 57.7; viability (ATP), % of control = 85.2; outcome = inactive
Gcc1 #2 → GFP, % of control = 69.4; viability (ATP), % of control = 87.3; outcome = inactive
Gcc1 #3 → GFP, % of control = 76.6; viability (ATP), % of control = 47.1; outcome = inactive
Mrps12 #1 → GFP, % of control = 96; viability (ATP), % of control = 53.6; outcome = inactive
Mrps12 #2 → GFP, % of control = 64.5; viability (ATP), % of control = 68.1; outcome = inactive
Mrps12 #3 → GFP, % of control = 126; viability (ATP), % of control = 113; outcome = active
Fastk → GFP, % of control = 33.8; viability (ATP), % of control = 48.3; outcome = inactive
Ubqln4 #1 → GFP, % of control = 92.6; viability (ATP), % of control = 58.7; outcome = inactive
Ubqln4 #2 → GFP, % of control = 76.2; viability (ATP), % of control = 97.8; outcome = inactive
Ubqln4 #3 → GFP, % of control = 77.4; viability (ATP), % of control = 67.4; outcome = inactive
Tmem150b #1 → GFP, % of control = 83.3; viability (ATP), % of control = 88.8; outcome = inactive
Tmem150b #2 → GFP, % of control = 122; viability (ATP), % of control = 63.5; outcome = active
Tmem150b #3 → GFP, % of control = 208; viability (ATP), % of control = 159; outcome = active
